According to patent publication US20040235717A1, “Suppression of androgen receptor transactivation through new pathways to ar and ar coactivators and repressors” (priority 2001, published 2004):
These are yes or no findings as the source states them, for the method shown. Binding seen in cells or lysates may run through a third protein. Some results given as binding are weak or reduced against the parent protein; the word gives no strength.

The chains behind the UniProt entries cited, without tags or fusion partners. Where a name states a change or a piece, a line headed by the entry shows the natural chain unless it says otherwise.
UniProt Q13485: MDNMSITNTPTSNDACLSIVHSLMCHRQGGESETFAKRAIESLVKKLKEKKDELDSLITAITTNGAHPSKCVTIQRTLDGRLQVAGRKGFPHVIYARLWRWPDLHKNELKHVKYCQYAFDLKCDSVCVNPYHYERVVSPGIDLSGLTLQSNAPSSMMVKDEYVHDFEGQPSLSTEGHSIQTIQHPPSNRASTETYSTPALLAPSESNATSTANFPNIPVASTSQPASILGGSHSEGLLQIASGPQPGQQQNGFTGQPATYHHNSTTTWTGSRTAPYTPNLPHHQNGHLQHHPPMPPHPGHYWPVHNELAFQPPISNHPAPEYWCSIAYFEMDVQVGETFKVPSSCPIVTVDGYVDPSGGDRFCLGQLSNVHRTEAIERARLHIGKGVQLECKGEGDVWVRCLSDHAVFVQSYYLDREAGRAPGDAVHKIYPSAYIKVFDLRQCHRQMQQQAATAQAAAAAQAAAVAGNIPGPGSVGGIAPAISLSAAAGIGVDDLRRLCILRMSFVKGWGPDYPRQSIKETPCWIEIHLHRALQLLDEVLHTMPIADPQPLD
UniProt P84022: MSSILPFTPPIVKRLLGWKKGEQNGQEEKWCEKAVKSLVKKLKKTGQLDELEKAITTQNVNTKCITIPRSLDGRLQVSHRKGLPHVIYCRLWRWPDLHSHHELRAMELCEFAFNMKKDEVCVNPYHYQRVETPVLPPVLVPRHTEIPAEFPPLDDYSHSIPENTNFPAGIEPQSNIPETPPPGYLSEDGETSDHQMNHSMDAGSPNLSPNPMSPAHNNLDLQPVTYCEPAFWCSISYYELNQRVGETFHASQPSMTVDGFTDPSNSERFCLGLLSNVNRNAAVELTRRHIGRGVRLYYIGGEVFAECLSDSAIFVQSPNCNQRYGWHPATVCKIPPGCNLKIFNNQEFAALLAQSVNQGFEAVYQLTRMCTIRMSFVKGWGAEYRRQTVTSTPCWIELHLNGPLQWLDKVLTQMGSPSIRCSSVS
UniProt P10275: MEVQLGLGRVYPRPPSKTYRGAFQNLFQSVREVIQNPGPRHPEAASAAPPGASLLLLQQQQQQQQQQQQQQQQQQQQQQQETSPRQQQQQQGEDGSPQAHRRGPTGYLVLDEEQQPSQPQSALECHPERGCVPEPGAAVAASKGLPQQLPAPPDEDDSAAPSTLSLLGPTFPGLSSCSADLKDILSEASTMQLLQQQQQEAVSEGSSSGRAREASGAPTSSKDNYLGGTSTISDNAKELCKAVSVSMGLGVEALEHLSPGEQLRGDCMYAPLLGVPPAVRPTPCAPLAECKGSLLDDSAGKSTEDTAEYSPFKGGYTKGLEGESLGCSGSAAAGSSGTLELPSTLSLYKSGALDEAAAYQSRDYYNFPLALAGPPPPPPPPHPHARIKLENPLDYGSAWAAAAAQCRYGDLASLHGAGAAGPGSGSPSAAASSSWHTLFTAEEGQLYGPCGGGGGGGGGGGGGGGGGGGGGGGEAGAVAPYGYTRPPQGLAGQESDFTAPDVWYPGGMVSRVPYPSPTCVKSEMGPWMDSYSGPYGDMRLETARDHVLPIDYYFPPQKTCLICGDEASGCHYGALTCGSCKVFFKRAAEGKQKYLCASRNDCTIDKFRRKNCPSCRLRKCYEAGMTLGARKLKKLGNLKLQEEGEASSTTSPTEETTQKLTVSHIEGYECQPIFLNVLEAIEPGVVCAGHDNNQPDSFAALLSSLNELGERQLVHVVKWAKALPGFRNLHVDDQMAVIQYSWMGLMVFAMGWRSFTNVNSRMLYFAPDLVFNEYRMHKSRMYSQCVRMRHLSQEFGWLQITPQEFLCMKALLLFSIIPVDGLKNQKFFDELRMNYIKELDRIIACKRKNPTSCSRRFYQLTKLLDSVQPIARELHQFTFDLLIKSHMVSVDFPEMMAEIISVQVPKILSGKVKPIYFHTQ

Columns and labels:
[1] = target: PTEN (phosphatase and tensin homolog deleted on chromosome ten), wild type, full length (Homo sapiens (Human)) (UniProt P60484); assay: co-immunoprecipitation in CWR22 cells transfected with ARf
[2] = target: Smad4 (full length, untagged) (human) (UniProt Q13485); assay: GST pull-down of in vitro translated 35S-labelled Smad4
[3] = target: Smad3 (full length, untagged) (human) (UniProt P84022); assay: GST pull-down of in vitro translated 35S-labelled Smad3
[4] = target: androgen receptor, wild type, full length (UniProt P10275); assay: GST pull-down of 35S-labelled AR
[5] = target: androgen receptor, wild type, full length (UniProt P10275); assay: restates the GST pull-down of FIG. 21C
[6] = target: androgen receptor, wild type, full length (UniProt P10275); assay: GST pull-down of 35S-labelled full-length AR
[7] = target: androgen receptor, wild type, full length (UniProt P10275); assay: co-immunoprecipitation of endogenous Smad4 in PC3-AR2 cells

## ARf (interaction domain within AR, aa 483-651) (from UniProt P10275 483-651) (peptide)
[1]
  binding: binds

## GST-AR-LBD fusion protein (from UniProt P10275 655-920)
[2]
  binding: binds
[3]
  binding: binds

## GST-PTEN-#2 (aa 107-252) (from UniProt P60484 107-252)
[4]
  binding: binds

## GST-PTEN-PTP (PTEN aa 110-163) (from UniProt P60484 110-163)
[5]
  binding: binds
[4]
  binding: binds

## GST-Smad3 fusion protein (from UniProt P08515 1-218; P84022 1-425)
[6]
  binding: binds
[4]
  binding: binds

## GST-Smad4 fusion protein (from UniProt P08515 1-218; Q13485 1-552)
[6]
  binding: binds
[4]
  binding: binds

## Smad4 (full length, untagged) (from UniProt Q13485 1-552)
[7]
  binding: binds
